Results as given in the supplement of paper PMC12889115.
The list shows a part of the results. These are raw signals, not scaled to a control.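 Primary screen: polymyxin B was added at a level permeabilizing Salmonella outer membranes while sparing inner membranes. DMSO wells, both with and without polymyxin B, established maximum growth. Plate-to-plate variation meant each plate was ranked on its own, and the lowest-OD600 compounds were selected as hits.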

Tested on: Salmonella enterica serovar Typhimurium SL1344
Assay: bacterial growth OD600 after 18 h with compound and polymyxin B; higher = more bacterial growth (less inhibition)
Conditions: 50 µM, Mueller-Hinton broth

Compound | bacterial growth OD600 (polymyxin B 0.75 µg/mL) | bacterial growth OD600 (polymyxin B 1 µg/mL)
CC(=O)c1ccc(N2CCC(C3CCN(CC(C)C)CC3)C2)nc1 (stereo unspecified) | 0.827 | –
Cc1nn(C)cc1CN(C)C(=O)CC(c1ccccc1)c1ccccc1Cl (stereo unspecified) | – | 0.83
COCCCC1CCN(C(=O)C2CCC(=O)N(CCCN3CCCC3=O)C2)CC1 (stereo unspecified) | – | 0.941
Cc1ccc(C(=O)N2CCC(C(Cc3ccc(F)cc3F)N(C)C(=O)C3CC3)CC2)s1 (stereo unspecified) | 0.722 | –
CC1(C)Cc2nc(N3CCOCC3)ncc2C(NC(=O)C2CCCCC2)C1 (stereo unspecified) | 0.011 | –
CO[C@H]1[C@H](NC(=O)c2ccncc2)c2ccccc2C12CCN(C(=O)CCN1CCCO1)CC2 | 0.801 | –
C=CCCC(=O)N1CCCC(CCc2c(F)cccc2F)C1 (stereo unspecified) | 0.794 | –
Cc1ncccc1C(=O)N1CC[C@@H](N2CCN(c3ccccc3F)CC2)[C@H](O)C1 | – | 0.928
O=C(CC(c1ccccc1)c1ccc2c(c1)OCO2)NCCN1CCOC1=O (stereo unspecified) | 0.793 | –
CCOC(=O)C1(CCCc2ccccc2)CCN(C(=O)c2csnn2)CC1 | – | 0.504
CC(=O)Nc1cc(C(=O)N2CCC(c3ccccc3F)C2)cc2ncn(Cc3ccc(F)cc3)c12 (stereo unspecified) | 0.835 | –
O=C(Nc1cccc(-n2cccn2)c1)C1CCCN1C(=O)CC1CC1 (stereo unspecified) | – | 0.941
COc1ccc(OC2CCN(C3CCCC3)CC2)c(C(=O)N2CCCN(C=O)CC2)c1 | – | 1.22
CCOC(=O)N1CCN(C2CCCN(Cc3ccc4cccc(OC)c4n3)C2)CC1 (stereo unspecified) | 0.815 | –
COc1cc(CN2Cc3ccccc3OC(c3ccccc3F)C2)cc(OC)c1OC (stereo unspecified) | 0.01 | –
CN(CCc1ccccn1)c1ncccc1CNC(=O)c1cn2ccccc2n1 | – | 0.989

Compound | bacterial growth OD600 (polymyxin B 0.75 µg/mL) | bacterial growth OD600 (polymyxin B 1 µg/mL)
Cc1cnc(CNC(=O)CC(c2cccc(O)c2)c2ccccc2Cl)cn1 (stereo unspecified) | – | 1.01
O=C(Cn1cccn1)N1CCc2onc(C(c3ccccc3)c3ccccc3)c2C1 | – | 0.849
COC(=O)CCCC(=O)NC1CCCN(Cc2ccccc2F)C1 (stereo unspecified) | – | 0.9
O=C(NC1CCCCC1)c1ccccc1OC1CCN(C(=O)c2cccnc2)CC1 | – | 1.33
OCC1(Cc2cccc(Cl)c2)CCCN(Cc2ccc(F)c(F)c2)C1 (stereo unspecified) | – | 0.001
CC(Cc1cccnc1)N1CCC(Oc2ccc(C(=O)NCc3ccccn3)cc2)CC1 (stereo unspecified) | – | 1.05
C=CCN(CC=C)C(=O)c1csc2nc(-c3ccccc3Cl)cn12 | 0.478 | –
CC(C)(O)C#Cc1ccc(CN2CC[C@@H](N3CCN(c4ccccn4)CC3)[C@H](O)C2)cc1 | 0.831 | –
CCOC(=O)C1(CCOc2ccccc2)CCN(Cc2ccc(C)o2)CC1 | – | 0.779
Cc1cccc(C(=O)N2CCCC(C(=O)c3cccc4ccccc34)C2)c1 (stereo unspecified) | – | 0.002
Cc1nnc(CN(C)C(=O)c2csc3nc(-c4cccc(F)c4)cn23)o1 | – | 1.13
COc1ccc(NC(=O)CCC2CCCN(S(=O)(=O)N(C)C)C2)c(C)c1 (stereo unspecified) | – | 1.2
O=C(Cn1cc(NC(=O)CCOc2ccccc2)cn1)NCCCn1ncc2ccccc21 | 0.902 | –
CCOC(=O)C1(CCOC)CCCN(C/C=C/c2ccc(OC)cc2)C1 (stereo unspecified) | – | 1.02
C=CCNC(=O)N1CCC2(CCCN(Cc3cc(OC)ccc3F)C2=O)C1 (stereo unspecified) | 0.813 | –

Some of the entries so far, as comma-separated lines.
Compound,bacterial growth OD600 (polymyxin B 0.75 µg/mL),bacterial growth OD600 (polymyxin B 1 µg/mL)
O=C(Cn1cccn1)N1CCc2onc(C(c3ccccc3)c3ccccc3)c2C1,–,0.849
COC(=O)CCCC(=O)NC1CCCN(Cc2ccccc2F)C1 (stereo unspecified),–,0.9
